Experimental findings from patent publication USRE43135E1, “Method of improving dough and bread quality” (Danisco A/S, priority 2001, dated 2012) are described below.

Data set [1] is described as follows: Mini baking test (minibread): bread volume and crumb. The protocol: The following ingredients were added to a 50 g Brabrender mixing bowl and kneaded for 5 minutes at 30° C.: flour 50 g, dry yeast 1.0 g, sugar 0.8 g, salt 0.8 g, 70 ppm ascorbic acid and water (to a dough consistency of 400 Brabender units). Resting time was 10 min. at 34° C. The dough was scaled 15 g per dough. Then moulded on a special device where the dough was rolled between a wooden plate and a Plexiglas frame. The doughs were proofed in tins for 45 min. at 34° C., and baked in a Voss household oven for 8 min. 225° C.
After baking the breads were cooled to ambient temperature and after 20 min. The breads were scaled and the volume was determined by rape-seed displacement method.
The breads were also cut and crumb and crust evaluated.

Data set [2] can be described thus: Baking test, hard crust rolls (Danish rolls). The following applies: 1.5 mg of LAH, compared with bread with no enzyme, initial results. The protocol: Flour, Danish reform 1500 g, Compressed Yeast 90 g, sugar 24 g, salt 24 grams, water 400 Brabender units+2% were kneaded in a Hobart™ mixer with hook for 2 minutes low speed and 9 minutes high speed. The dough temperature was 26° C. The dough was scaled 1350 gram. Resting 10 min. at 30° C. and moulded on a Fortuna moulder. The dough was proofed 45 min. at 34° C. The dough was baked in a Bago-oven 18 min. 220° C. and steamed for 12 sec.
After cooling the rolls were scaled and the volume of the rolls was measured by the rape seed displacement method.
The dough quality parameters were also evaluated.
LAH isolated from cowpea was evaluated in baking tests as follows. The LAH was evaluated in hard crust rolls.
LAH was tested in a dosage of 0, 0.25, 0.5, 1 or 1.5 units enzyme/kg flour).

Data set [3] is described as follows: Baking test, Danish toast bread: loaf volume, firmness, crumb. The following applies: initial results. Here is the method: Flour, Danish reform 2000 g, Dry yeast 30 g, sugar 30 g, salt 30 gram and, water 400 Brabender units+3% was kneaded in a Hobart™ Mixer with hook for 2 min. at low speed and 10 min. at high speed. Dough temperature after mixing was 25° C. Resting time was 10 min. at 30° C. The dough was scaled 750 gram per dough. Then rested again for 5 min. at 33° C. and 85% RH. The dough was moulded on a Glimik moulder. The doughs were proofed in tins for 50 min. at 33° C., and baked in a Wachtel oven 40 min. 220° C. and steam injection for 16 sec.
After cooling the bread was scaled, and the volume of the bread was measured by the rape seed displacement method.
The crumb was also evaluated subjectively on a scale 1 to 10, where 1=course inhomogeneous and 10=nice homogeneous.
Three breads baked in tins with lids were stored at 20° C. and used for firmness measurements.
Firmness of bread was measured on a Instron™ M model 4301 connected to a computer.
Conditions for measurement of bread firmness: • Load Cell Max. […]
LAH was tested in bread according to the Danish toast bread procedure using Danish reform flour. […] After baking, the loaves were cooled and the loaf volume measured. Bread baked in tin with a lid were stored at ambient temperature and the crumb softness were evaluated after 1, 3 and 7 days storage at 22° C. wrapped in double plastic bags.

Regarding “Cowpea LAH: lipolytic acyl hydrolase (E.C. 3.1.1.26) isolated from cowpea (Vigna unguiculata) leaves; hydrolyses glycolipid and phospholipid, not triglyceride”, the “Specific Bread volume” value was found to be 3 mL/g in data set [1] (Cowpea LAH 0.1195 Units/kg), 3.2 mL/g in data set [1] (Cowpea LAH 0.239 Units/kg), 3.15 mL/g in data set [1] (Cowpea LAH 0.478 Units/kg) and 3.15 mL/g in data set [1] (Cowpea LAH 0.956 Units/kg). In addition, the “Sp. Bread vol.” value in data set [1] (Test no 3, Cowpea LAH 0.357 Units/kg flour, no DGDG) is 3.22 mL/g; in data set [1] (Test no 4, Cowpea LAH 0.357 Units/kg flour + DGDG 55% pure 0.2 %), 3.69 mL/g; in data set [1] (Test no 10, Cowpea LAH 1.07 Units/kg flour, no DGDG), 3.11 mL/g; in data set [1] (Test no 11, Cowpea LAH 1.07 Units/kg flour + DGDG 55% pure 0.1 %), 3.3 mL/g; in data set [1] (Test no 12, Cowpea LAH 1.07 Units/kg flour + DGDG 55% pure 0.2 %), 3.73 mL/g; in data set [1] (Test no 13, Cowpea LAH 1.07 Units/kg flour + DGDG 55% pure 0.4 %), 4.13 mL/g. The “Sp. Bread vol.” value in data set [1] (Test no 15, Cowpea LAH 1.07 Units/kg flour + Soy oil 2 %) was 3.3 mL/g; in data set [1] (Test no 16, Cowpea LAH 2.14 Units/kg flour + Soy oil 2 %) it was 3.12 mL/g. Also, the “Sp. Bread volume” value came out at 4.36 mL/g in data set [1] (Test no 3, Cowpea LAH 0.71 Units/kg flour + DGDG 55% pure 0.4 %) and 3.14 mL/g in data set [1] (Test no 4, Cowpea LAH 0.71 Units/kg flour, no DGDG). Besides, the Bread volume was 3.11 mL/g in data set [1] (Test no. 2, Cowpea LAH 0.05 % in dough) and 3.3 mL/g in data set [1] (Test no. 3, Cowpea LAH 0.15 % in dough). Moreover, the “increase of loaf volume” value in data set [2] is given as “more than 10%”. In addition, the loaf volume entry in data set [3] (1-1.5 units of LAH) is reported as “increases the loaf volume”. Moreover, in data set [3] (after 7 days storage, compared with control without enzyme), the “firmness and elasticity of crumb” value is listed as “significantly softer crumb”.
